{"source": "PubChem BioAssay AID1259425 (University of Nebraska Medical Center, 2018)", "assay": "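Compare each knockdown with KSR1 silencing using changes in marker transcripts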 (primary screen)", "cells": "HCT116 human colon cancer cells", "reagent": "siRNA pool against human genes, 50 nM siRNA", "detection": "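mRNA of six signature genes measured together by branched-DNA assay after 50 nM siRNA pool, blank removed, divided by geometric mean of two housekeeping genes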", "reading the numbers": "BNIP3L mRNA: higher = more BNIP3L transcript after knockdown", "note": "In all, the deposit lists about 14,000 reagents; shown is an unselected part. A reagent listed more than once was tested more than once; the source does not tell the runs apart. Further read-outs or replicates are left out here. The record does not give: the time to read-out."}
{"Target gene": "RPL4 (GeneID 6124)", "PubChem SID": "SID363992252", "BNIP3L mRNA, set 1": 0.329}
{"Target gene": "MRPL12 (GeneID 6182)", "PubChem SID": "SID363994100", "BNIP3L mRNA, set 1": 0.251}
{"Target gene": "INPPL1 (GeneID 3636)", "PubChem SID": "SID363992823", "BNIP3L mRNA, set 1": 0.107}
{"Target gene": "MYT1L (GeneID 23040)", "PubChem SID": "SID364005123", "BNIP3L mRNA, set 1": 0.105}
{"Target gene": "TAS2R19 (GeneID 259294)", "PubChem SID": "SID364004892", "BNIP3L mRNA, set 1": 0.103}
{"Target gene": "TOR1AIP2 (GeneID 163590)", "PubChem SID": "SID364002404", "BNIP3L mRNA, set 1": 0.122}
{"Target gene": "JMJD1C (GeneID 221037)", "PubChem SID": "SID363995240", "BNIP3L mRNA, set 1": 0.0634}
{"Target gene": "CLDN1 (GeneID 9076)", "PubChem SID": "SID364002009", "BNIP3L mRNA, set 1": 0.0785}
{"Target gene": "UGT1A9 (GeneID 54600)", "PubChem SID": "SID364001964", "BNIP3L mRNA, set 1": 0.122}
{"Target gene": "USP6 (GeneID 9098)", "PubChem SID": "SID363995482", "BNIP3L mRNA, set 1": 0.0341}
{"Target gene": "NMU (GeneID 10874)", "PubChem SID": "SID363997464", "BNIP3L mRNA, set 1": 0.0339}
{"Target gene": "DSCC1 (GeneID 79075)", "PubChem SID": "SID364002744", "BNIP3L mRNA, set 1": 1.34}

Continued (2 carried over from the part before).
{"Target gene": "NMU (GeneID 10874)", "PubChem SID": "SID363997464", "BNIP3L mRNA, set 1": 0.0339}
{"Target gene": "DSCC1 (GeneID 79075)", "PubChem SID": "SID364002744", "BNIP3L mRNA, set 1": 1.34}
{"Target gene": "MTARC1 (GeneID 64757)", "PubChem SID": "SID364002521", "BNIP3L mRNA, set 1": 0.145}
{"Target gene": "FAM124B (GeneID 79843)", "PubChem SID": "SID364003056", "BNIP3L mRNA, set 1": 0.104}
{"Target gene": "IL36B (GeneID 27177)", "PubChem SID": "SID363998853", "BNIP3L mRNA, set 1": 0.106}
{"Target gene": "DVL1 (GeneID 1855)", "PubChem SID": "SID363995403", "BNIP3L mRNA, set 1": 0.0949}
{"Target gene": "MDGA1 (GeneID 266727)", "PubChem SID": "SID364004777", "BNIP3L mRNA, set 1": 0.179}
{"Target gene": "TNPO2 (GeneID 30000)", "PubChem SID": "SID363998512", "BNIP3L mRNA, set 1": 0.156}
{"Target gene": "TNPO2 (GeneID 30000)", "PubChem SID": "SID363998512", "BNIP3L mRNA, set 1": 0.141}
{"Target gene": "ZNF236 (GeneID 7776)", "PubChem SID": "SID363997987", "BNIP3L mRNA, set 1": 0.114}
{"Target gene": "FCGR2A (GeneID 2212)", "PubChem SID": "SID364002164", "BNIP3L mRNA, set 1": 0.118}
{"Target gene": "H3C11 (GeneID 8354)", "PubChem SID": "SID363994617", "BNIP3L mRNA, set 1": 0.0606}
{"Target gene": "BRINP2 (GeneID 57795)", "PubChem SID": "SID364002056", "BNIP3L mRNA, set 1": 0.0737}
{"Target gene": "SELENOT (GeneID 51714)", "PubChem SID": "SID364000000", "BNIP3L mRNA, set 1": 0.138}
{"Target gene": "PI4K2A (GeneID 55361)", "PubChem SID": "SID364001062", "BNIP3L mRNA, set 1": 0.0801}
{"Target gene": "DUSP4 (GeneID 1846)", "PubChem SID": "SID363992663", "BNIP3L mRNA, set 1": 0.0917}
{"Target gene": "IDS (GeneID 3423)", "PubChem SID": "SID363991538", "BNIP3L mRNA, set 1": 0.228}
{"Target gene": "BUD31 (GeneID 8896)", "PubChem SID": "SID363994968", "BNIP3L mRNA, set 1": 0.0934}
